{"source": "paper PMC12040169", "about": "(PLOS Biology, 2025)", "note": "Some of the results follow.", "data": [{"tested_on": "T1, CTL2-GFP (C. trachomatis L2/434/Bu, GFP-expressing)", "T1 construct": "L2/434/Bu, GFP-expressing", "design": "species or system HeLa; Intracellular C. trachomatis growth in HeLa cells, bulk GFP fluorescence relative to DMSO", "conditions": "bulk GFP, single well; 28.5 h, 10 µM; inhibitor", "units": {"% of control remaining": "%"}, "values": [{"smiles": "O=C1CN(C(=O)NCCc2c[nH]c3ccccc23)CCN1", "note": "[CBK155866]", "% of control remaining": 99.7963}, {"smiles": "Cc1cc(C)cc(NS(=O)(=O)c2ccc(NC(=O)C(C)Oc3ccc(Cl)cc3Cl)cc2)c1", "note": "(stereo not shown) [CBK264894]", "% of control remaining": 64.3813}, {"smiles": "Cn1cc(C(=O)NC(Cc2ccsc2)c2cccnc2)cn1", "note": "(stereo not shown) [CBK285118]", "% of control remaining": 103.57}, {"smiles": "CN1CCN(CCCOc2ccc(OCc3ccccc3)cc2)CC1", "note": "[CBK265077]", "% of control remaining": 120.73}, {"smiles": "Cc1onc(-c2ccccc2)c1CNC(=O)CC1CCCCC1", "note": "[CBK144078]", "% of control remaining": 118.323}, {"smiles": "NS(=O)(=O)c1ccc(CNS(=O)(=O)Cc2ccccc2)cc1", "note": "[CBK228048]", "% of control remaining": 115.915}, {"smiles": "O=C(NCc1cc(Br)ccc1F)C1CC(=O)N(Cc2ccccn2)C1", "note": "(stereo not shown) [CBK305242]", "% of control remaining": 108.244}, {"smiles": "CN1CCC(N(C)C(=O)Nc2ccc3[nH]ccc3c2)C1", "note": "(stereo not shown) [CBK156006]", "% of control remaining": 82.1802}, {"smiles": "O=C1COc2ccccc2CCCC[C@@H]2CN(C(=O)CCN3CCCC3=O)CC[C@H]2N1", "note": "[CBK292044]", "% of control remaining": 138.482}, {"smiles": "O=C1COc2ccccc2C/C=C/CC2(CCNCC2)C(=O)NCCN1", "note": "[CBK291996]", "% of control remaining": 121.329}, {"smiles": "COC(=O)c1ccc(NC(=O)Cn2nnc(-c3ccc(CN4CCOCC4)cc3)n2)cc1", "note": "[CBK134589]", "% of control remaining": 115.709}, {"smiles": "Cc1ccc(S(=O)(=O)N2CCC(OC(N)=O)CC2)cc1", "note": "[CBK003369]", "% of control remaining": 94.9126}, {"smiles": "O=C(O)CCc1nn2c3ccccc3n(CCN3CCCCC3)c2nc1=O", "note": "[CBK267519]", "% of control remaining": 116.498}, {"smiles": "O=C(CCCOc1ccccc1)NCc1ccc(OC2CCNCC2)cc1", "note": "[CBK028427T]", "% of control remaining": 109.01}, {"smiles": "CCC1CCCCN1C(=O)c1cc2cc(Cl)ccc2[nH]1", "note": "(stereo not shown) [CBK074329]", "% of control remaining": 139.771}, {"smiles": "Cc1cccc(CN(CC(=O)Nc2ccc3c(c2)OCCO3)S(=O)(=O)c2ccc(Cl)cc2)c1", "note": "[CBK264910]", "% of control remaining": 90.2893}, {"smiles": "O=C(O)CCN1C(=O)c2ccc(NC(=O)Cc3cccs3)cc2C1=O", "note": "[CBK268240]", "% of control remaining": 113.512}, {"smiles": "Cc1ccc(-c2csc3c(=O)[nH]c(N4CCCC(C(=O)NCC(N)=O)C4)nc23)cc1", "note": "(stereo not shown) [CBK215542]", "% of control remaining": 155.72}, {"smiles": "CN1CCC(N(C)C(=O)NCCCN2CCCC2=O)C1", "note": "(stereo not shown) [CBK156021]", "% of control remaining": 103.282}, {"smiles": "O=C(O)CSCc1ccc(C(=O)O)o1", "note": "[CBK263267]", "% of control remaining": 131.862}, {"smiles": "Cc1ccc2c(c1)C1(CCN(CC3CC3)CC1)NC(=O)C2", "note": "[CBK040217]", "% of control remaining": 85.5253}, {"smiles": "O=C(NCc1cccnc1)c1ccccc1-n1cccc1", "note": "[CBK149602]", "% of control remaining": 96.2862}]}]}
